Results taken from paper PMC12192612.
These are yes or no findings as the source states them, for the method shown.

By UniProt entry, the sequences of proteins in these tests, tags left out. Where a name states a change or a piece, a line headed by the entry shows the natural chain unless it says otherwise. Chains listed by the source or under a name are the forms on record and can include a tag or linker. Residues count along the entry.
UniProt Q9H8M5, residues 429-584: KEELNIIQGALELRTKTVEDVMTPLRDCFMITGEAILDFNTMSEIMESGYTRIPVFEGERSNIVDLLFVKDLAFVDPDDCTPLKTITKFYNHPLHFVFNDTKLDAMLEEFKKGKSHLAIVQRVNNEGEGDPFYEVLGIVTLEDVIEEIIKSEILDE
cysteine-phosphorylated PRL3 D72A (residues 1-169) (O75365, form named): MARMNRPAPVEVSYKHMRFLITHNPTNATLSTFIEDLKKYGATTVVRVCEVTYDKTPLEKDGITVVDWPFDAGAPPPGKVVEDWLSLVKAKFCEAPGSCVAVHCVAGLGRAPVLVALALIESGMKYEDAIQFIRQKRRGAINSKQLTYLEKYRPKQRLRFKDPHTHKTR

Target: CBS-pair domain of CNNM2 (residues 429-584) (human) (UniProt Q9H8M5)
Experiment: condition: syringe typically 160 μM ligand, cell 16 μM protein; ITC; MicroCal VP-ITC, 20 °C, 29 injections of 10 μl; syringe typically 160 μM ligand, cell 16 μM protein (which protein was in the syringe is not told); PRL phosphorylated with 4'-MUP and desalted; single set of identical sites model; both purified

## cysteine-phosphorylated PRL3 D72A (residues 1-169) (from UniProt O75365 1-169) (enzyme)
  binding: no binding
